The supplement of paper PMC10849652
The list shows a part of the results.

Protein sequences, listed by entry. Tags and fused reporters are not part of them. Lines headed by an entry give the natural chain unless they say otherwise; changes in a name come on top.
UniProt P08134, whole entry, looked up: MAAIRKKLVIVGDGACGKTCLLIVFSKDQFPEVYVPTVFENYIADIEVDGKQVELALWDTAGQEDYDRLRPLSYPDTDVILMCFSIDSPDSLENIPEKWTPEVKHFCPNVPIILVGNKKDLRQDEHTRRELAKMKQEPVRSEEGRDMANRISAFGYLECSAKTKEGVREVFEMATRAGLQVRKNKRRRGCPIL
UniProt Q8IXI1, whole entry, looked up: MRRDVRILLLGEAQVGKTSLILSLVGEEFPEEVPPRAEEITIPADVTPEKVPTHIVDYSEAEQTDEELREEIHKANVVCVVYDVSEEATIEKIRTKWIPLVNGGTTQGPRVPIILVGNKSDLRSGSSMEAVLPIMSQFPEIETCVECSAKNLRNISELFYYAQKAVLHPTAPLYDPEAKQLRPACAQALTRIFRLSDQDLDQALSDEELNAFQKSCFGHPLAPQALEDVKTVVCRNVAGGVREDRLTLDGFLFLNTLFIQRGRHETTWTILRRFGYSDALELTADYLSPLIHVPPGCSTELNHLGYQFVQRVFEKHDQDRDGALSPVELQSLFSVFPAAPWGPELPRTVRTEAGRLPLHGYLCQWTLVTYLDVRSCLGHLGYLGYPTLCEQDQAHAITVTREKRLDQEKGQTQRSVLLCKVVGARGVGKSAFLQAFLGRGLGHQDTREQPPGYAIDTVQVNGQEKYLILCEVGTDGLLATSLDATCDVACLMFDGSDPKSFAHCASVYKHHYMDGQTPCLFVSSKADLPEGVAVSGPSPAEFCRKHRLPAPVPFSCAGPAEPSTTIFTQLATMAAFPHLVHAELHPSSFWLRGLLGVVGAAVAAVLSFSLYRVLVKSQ
UniProt Q9BRS2: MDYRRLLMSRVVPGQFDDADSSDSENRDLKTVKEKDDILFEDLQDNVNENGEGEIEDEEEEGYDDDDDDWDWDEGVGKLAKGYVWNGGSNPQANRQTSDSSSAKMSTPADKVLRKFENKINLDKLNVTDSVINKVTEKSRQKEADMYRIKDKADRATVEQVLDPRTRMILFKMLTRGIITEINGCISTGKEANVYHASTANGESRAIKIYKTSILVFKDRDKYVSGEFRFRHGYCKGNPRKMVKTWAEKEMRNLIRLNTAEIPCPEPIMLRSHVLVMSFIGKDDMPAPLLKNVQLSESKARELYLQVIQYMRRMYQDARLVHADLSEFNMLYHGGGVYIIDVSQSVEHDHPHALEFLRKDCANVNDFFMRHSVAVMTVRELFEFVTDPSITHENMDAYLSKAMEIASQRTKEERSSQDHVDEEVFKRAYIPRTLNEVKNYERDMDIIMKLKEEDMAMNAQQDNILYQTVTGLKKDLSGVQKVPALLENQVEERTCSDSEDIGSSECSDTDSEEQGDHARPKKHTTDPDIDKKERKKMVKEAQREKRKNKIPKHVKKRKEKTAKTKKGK
UniProt O43148, whole entry, looked up: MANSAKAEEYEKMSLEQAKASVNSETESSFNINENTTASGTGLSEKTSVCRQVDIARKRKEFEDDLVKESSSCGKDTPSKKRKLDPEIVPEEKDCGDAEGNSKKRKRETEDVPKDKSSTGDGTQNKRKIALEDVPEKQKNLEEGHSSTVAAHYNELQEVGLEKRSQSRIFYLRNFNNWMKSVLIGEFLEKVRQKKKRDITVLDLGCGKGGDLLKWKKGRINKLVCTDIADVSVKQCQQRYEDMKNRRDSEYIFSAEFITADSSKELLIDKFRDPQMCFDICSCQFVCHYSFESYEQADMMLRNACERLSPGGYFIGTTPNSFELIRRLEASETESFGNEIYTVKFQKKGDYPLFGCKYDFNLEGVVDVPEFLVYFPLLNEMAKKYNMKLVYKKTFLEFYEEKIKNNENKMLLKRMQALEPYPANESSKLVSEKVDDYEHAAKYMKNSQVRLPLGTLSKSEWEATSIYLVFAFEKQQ
UniProt Q96A37: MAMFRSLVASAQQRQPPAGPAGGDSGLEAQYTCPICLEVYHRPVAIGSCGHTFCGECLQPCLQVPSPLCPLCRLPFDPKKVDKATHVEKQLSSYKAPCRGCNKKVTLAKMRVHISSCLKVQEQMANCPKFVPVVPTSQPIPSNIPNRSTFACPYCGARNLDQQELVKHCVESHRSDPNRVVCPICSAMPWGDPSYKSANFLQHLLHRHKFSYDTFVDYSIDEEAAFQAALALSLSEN
UniProt P84095: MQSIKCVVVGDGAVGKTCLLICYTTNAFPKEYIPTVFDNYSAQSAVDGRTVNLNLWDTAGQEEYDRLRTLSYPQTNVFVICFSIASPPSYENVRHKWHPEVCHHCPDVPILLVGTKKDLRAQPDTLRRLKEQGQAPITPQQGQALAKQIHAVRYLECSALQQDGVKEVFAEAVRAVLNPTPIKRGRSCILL
UniProt O75116: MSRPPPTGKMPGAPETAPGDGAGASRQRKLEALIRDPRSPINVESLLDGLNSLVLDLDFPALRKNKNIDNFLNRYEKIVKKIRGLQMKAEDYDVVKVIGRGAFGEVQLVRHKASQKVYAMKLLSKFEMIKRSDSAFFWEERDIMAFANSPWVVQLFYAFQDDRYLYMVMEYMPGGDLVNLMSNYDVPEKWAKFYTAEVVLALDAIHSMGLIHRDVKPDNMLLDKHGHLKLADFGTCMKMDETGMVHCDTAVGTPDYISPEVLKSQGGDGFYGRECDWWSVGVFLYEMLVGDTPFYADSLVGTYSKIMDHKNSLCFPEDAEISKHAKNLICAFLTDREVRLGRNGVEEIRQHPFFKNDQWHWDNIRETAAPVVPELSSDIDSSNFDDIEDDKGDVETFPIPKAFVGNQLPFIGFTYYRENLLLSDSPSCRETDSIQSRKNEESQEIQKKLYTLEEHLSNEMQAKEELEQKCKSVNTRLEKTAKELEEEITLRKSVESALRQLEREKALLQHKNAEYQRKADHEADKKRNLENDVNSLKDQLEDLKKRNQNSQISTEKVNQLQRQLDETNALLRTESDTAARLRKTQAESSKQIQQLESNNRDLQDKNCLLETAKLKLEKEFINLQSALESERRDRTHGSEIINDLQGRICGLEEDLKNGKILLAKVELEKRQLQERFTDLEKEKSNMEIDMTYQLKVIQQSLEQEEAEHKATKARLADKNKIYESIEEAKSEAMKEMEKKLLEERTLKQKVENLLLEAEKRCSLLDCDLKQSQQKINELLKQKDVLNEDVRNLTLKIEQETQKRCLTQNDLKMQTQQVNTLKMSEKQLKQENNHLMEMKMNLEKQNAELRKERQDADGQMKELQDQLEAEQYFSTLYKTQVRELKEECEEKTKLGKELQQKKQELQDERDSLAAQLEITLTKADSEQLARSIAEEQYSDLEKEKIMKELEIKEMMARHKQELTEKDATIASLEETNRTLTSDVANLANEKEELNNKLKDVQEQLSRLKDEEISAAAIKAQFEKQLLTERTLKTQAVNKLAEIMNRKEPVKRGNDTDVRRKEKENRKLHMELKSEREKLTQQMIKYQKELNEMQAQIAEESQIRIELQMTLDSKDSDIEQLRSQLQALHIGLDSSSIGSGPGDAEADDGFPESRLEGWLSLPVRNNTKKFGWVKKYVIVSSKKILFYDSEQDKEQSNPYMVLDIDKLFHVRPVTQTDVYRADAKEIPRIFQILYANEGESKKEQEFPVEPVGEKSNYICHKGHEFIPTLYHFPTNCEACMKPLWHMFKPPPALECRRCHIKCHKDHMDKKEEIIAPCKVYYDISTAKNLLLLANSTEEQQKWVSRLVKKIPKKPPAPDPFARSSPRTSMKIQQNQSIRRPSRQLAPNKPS
UniProt O00584, whole entry, looked up: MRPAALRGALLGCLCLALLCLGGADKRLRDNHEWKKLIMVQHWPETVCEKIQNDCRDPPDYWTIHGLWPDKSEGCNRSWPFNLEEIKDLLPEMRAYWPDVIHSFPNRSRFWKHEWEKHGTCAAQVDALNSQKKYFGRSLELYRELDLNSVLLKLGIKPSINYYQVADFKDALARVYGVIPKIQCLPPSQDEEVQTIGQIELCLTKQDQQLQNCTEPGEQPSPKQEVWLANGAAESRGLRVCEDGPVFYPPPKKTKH
UniProt O60942: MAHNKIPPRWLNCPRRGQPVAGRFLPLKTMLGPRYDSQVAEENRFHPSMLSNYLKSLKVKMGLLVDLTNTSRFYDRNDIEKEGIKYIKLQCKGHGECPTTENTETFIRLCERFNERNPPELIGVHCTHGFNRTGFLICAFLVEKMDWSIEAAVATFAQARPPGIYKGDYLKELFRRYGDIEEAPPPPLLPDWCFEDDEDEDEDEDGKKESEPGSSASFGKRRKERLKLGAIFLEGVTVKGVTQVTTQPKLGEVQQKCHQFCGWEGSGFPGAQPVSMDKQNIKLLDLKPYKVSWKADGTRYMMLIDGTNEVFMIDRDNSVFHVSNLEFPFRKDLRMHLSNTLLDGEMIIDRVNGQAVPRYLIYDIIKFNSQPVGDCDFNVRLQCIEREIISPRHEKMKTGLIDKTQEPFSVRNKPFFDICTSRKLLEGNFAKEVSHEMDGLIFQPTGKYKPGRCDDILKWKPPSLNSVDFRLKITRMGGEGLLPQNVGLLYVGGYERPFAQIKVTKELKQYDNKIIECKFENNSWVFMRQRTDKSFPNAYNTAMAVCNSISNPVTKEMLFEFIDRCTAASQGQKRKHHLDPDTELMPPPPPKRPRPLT
UniProt P35244: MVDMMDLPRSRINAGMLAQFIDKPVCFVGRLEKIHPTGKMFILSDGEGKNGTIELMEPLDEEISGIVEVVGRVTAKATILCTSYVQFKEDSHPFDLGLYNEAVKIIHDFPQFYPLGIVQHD

Assays:
Assay in all cases: log2 fold change, soluble protein after heating vs DMSO (PISA); higher = thermal stabilisation; K562 lysate, 10 uM; active = over 0.2 and 3.5 SD of the protein, either way, in both replicates (recomputed)
vemurafenib = compound: CCCS(=O)(=O)Nc1ccc(F)c(C(=O)c2c[nH]c3ncc(-c4ccc(Cl)cc4)cc23)c1F [vemurafenib]
Procedure, shortened: (§1)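 Values give the log-two fold change in thermal stability against solvent controls, from duplicates. Crude K562 extract at 1 mg/mL protein, made by dounce homogenisation in PBS pH 7.4 with 1 mM MgCl2, was treated with 10 μM compound for 30 min. After 3 min heating across 48°C-58°C, aliquots were pooled, adjusted to 0.5% NP-40 at 4°C and centrifuged at 21,000xg for 90 min. The supernatant was measured by TMTpro 16plex LC-MS/MS with channel sums equalised.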

[1] = compound: CCCS(=O)(=O)Nc1ccc(F)c(C(=O)c2c[nH]c3ncc(Cl)cc23)c1F
Procedure, shortened: as §1

barasertib = compound: CCN(CCCOc1ccc2c(Nc3cc(CC(=O)Nc4cccc(F)c4)[nH]n3)ncnc2c1)CCOP(=O)(O)O [barasertib]
Procedure, shortened: as §1

[2] = compound: CC[C@@H]1C(=O)N(C)c2cnc(Nc3ccc(C(=O)NC4CCN(C)CC4)cc3OC)nc2N1C1CCCC1
Procedure, shortened: as §1

volasertib = compound: CC[C@@H]1C(=O)N(C)c2cnc(Nc3ccc(C(=O)N[C@H]4CC[C@H](N5CCN(CC6CC6)CC5)CC4)cc3OC)nc2N1C(C)C [volasertib]
Procedure, shortened: as §1

[3] = compound: CCn1c(C(=O)N(C2CC2)C2CC2)cc2c3c(ncn3C)c(Nc3cc(C)n(C)n3)nc21
Procedure, shortened: as §1

[4] = compound: CCn1cc(-c2ccnc3[nH]c(-c4cccc(CN(C)C)c4)cc23)c(-c2ccc(NC(=O)N(C)C)cc2)n1
Procedure, shortened: as §1

[5] = compound: CN1CCC(CNc2ccc3ncc(-c4cccc(OC(F)(F)F)c4)n3n2)CC1
Procedure, shortened: as §1

saracatinib = compound: CN1CCN(CCOc2cc(OC3CCOCC3)c3c(Nc4c(Cl)ccc5c4OCO5)ncnc3c2)CC1 [saracatinib]
Procedure, shortened: as §1

sotrastaurin = compound: CN1CCN(c2nc(C3=C(c4c[nH]c5ccccc45)C(=O)NC3=O)c3ccccc3n2)CC1 [sotrastaurin]
Procedure, shortened: as §1

alvocidib = compound: CN1CC[C@H](c2c(O)cc(O)c3c(=O)cc(-c4ccccc4Cl)oc23)[C@H](O)C1 [alvocidib]
Procedure, shortened: as §1

Tubastatin A = compound: CN1CCc2c(c3ccccc3n2Cc2ccc(C(=O)NO)cc2)C1 [Tubastatin A]
Procedure, shortened: as §1

[6] = compound: CNC(=O)C1=CC=CC=C1NC2=NC(=NC=C2Cl)NC3=C(C=C(C=C3)N4CCOCC4)OC
Procedure, shortened: as §1

defactinib = compound: CNC(=O)c1ccc(Nc2ncc(C(F)(F)F)c(NCc3nccnc3N(C)S(C)(=O)=O)n2)cc1 [defactinib]
Procedure, shortened: as §1

[7] = compound: CNc1nc(-c2ccc3c(N)n[nH]c3c2)cc(N2C[C@@H](C(=O)NC3CCCCC3)CC[C@H]2C)n1
Procedure, shortened: as §1

encorafenib = compound: COC(=O)N[C@@H](C)CNc1nccc(-c2cn(C(C)C)nc2-c2cc(Cl)cc(NS(C)(=O)=O)c2F)n1 [encorafenib]
Procedure, shortened: as §1

[8] = compound: COC(=O)[C@H](CCSC)NC(=O)C1=C(C=C(C=C1)NC[C@H](CS)N)C2=CC=CC=C2
Procedure, shortened: as §1

alisertib = compound: COc1cc(Nc2ncc3c(n2)-c2ccc(Cl)cc2C(c2c(F)cccc2OC)=NC3)ccc1C(=O)O [alisertib]
Procedure, shortened: as §1

[9] = compound: COc1cc2nc(-c3cc(F)ccc3O)nc(N[C@@H]3CNC[C@H]3C(C)(C)O)c2cc1OC
Procedure, shortened: as §1

gefitinib = compound: COc1cc2ncnc(Nc3ccc(F)c(Cl)c3)c2cc1OCCCN1CCOCC1 [gefitinib]
Procedure, shortened: as §1

Measured: log2 fold change

RHOC (UniProt P08134)
inactive: vemurafenib -0.024 | [1] 0.015 | barasertib -0.018 | [2] -0.059 | volasertib -0.02 | [3] 0.072 | [4] -0.133 | [5] 0.095 | saracatinib 0 | sotrastaurin -0.024 | alvocidib -0.015 | Tubastatin A -0.026 | [6] 0.029 | defactinib 0.004 | [7] -0.104 | encorafenib -0.018 | [8] 0.024 | alisertib -0.014 | [9] 0.028 | gefitinib 0.004

RHOT2 (UniProt Q8IXI1)
inactive: vemurafenib 0.019 | [1] -0.006 | barasertib 0.072 | [2] -0.011 | volasertib -0.064 | [3] -0.022 | [4] -0.086 | [5] 0.047 | saracatinib -0.021 | sotrastaurin -0.003 | alvocidib 0.024 | Tubastatin A 0.016 | [6] -0.04 | defactinib -0.034 | [7] 0.027 | encorafenib -0.013 | [8] -0.038 | alisertib 0.01 | [9] 0.032 | gefitinib 0.043

RIOK1 (UniProt Q9BRS2)
active: [7] 0.413
inactive: vemurafenib 0.021 | [1] 0.023 | barasertib 0.001 | [2] 0.02 | volasertib -0.093 | [3] 0.004 | [4] 0.017 | [5] 0.057 | saracatinib 0.032 | sotrastaurin 0.001 | alvocidib 0 | Tubastatin A 0.005 | [6] 0.008 | defactinib -0.009 | encorafenib 0.006 | [8] -0.006 | alisertib 0.01 | [9] 0.168 | gefitinib -0.019

RPL35A (UniProt P18077)
inactive: vemurafenib -0.038 | [1] 0.019 | barasertib -0.032 | [2] -0.094 | volasertib -0.021 | [3] -0.011 | [4] -0.076 | [5] 0.046 | saracatinib -0.046 | sotrastaurin -0.003 | alvocidib -0.067 | Tubastatin A 0.038 | [6] 0.004 | defactinib 0 | [7] 0.001 | encorafenib 0.005 | [8] 0.032 | alisertib 0.036 | [9] 0.002 | gefitinib -0.034

RNMT isoform 2 (UniProt O43148)
inactive: vemurafenib 0.009 | [1] -0.007 | barasertib -0.017 | [2] -0.006 | volasertib 0.007 | [3] 0.05 | [4] 0.025 | [5] -0.008 | saracatinib 0.005 | sotrastaurin -0.012 | alvocidib -0.036 | Tubastatin A -0.015 | [6] -0.004 | defactinib 0 | [7] -0.027 | encorafenib 0.007 | [8] 0.061 | alisertib -0.01 | [9] 0.001 | gefitinib -0.026

RPL22 (UniProt P35268)
inactive: vemurafenib -0.017 | [1] 0 | barasertib 0.035 | [2] -0.042 | volasertib -0.004 | [3] -0.024 | [4] -0.054 | [5] 0.03 | saracatinib 0 | sotrastaurin -0.015 | alvocidib -0.016 | Tubastatin A 0.045 | [6] -0.026 | defactinib -0.044 | [7] 0.038 | encorafenib -0.007 | [8] 0.004 | alisertib 0.023 | [9] 0.003 | gefitinib -0.022

RNF166 (UniProt Q96A37)
inactive: vemurafenib 0.007 | [1] 0.092 | barasertib 0.013 | [2] -0.024 | volasertib -0.042 | [3] -0.057 | [4] 0.085 | [5] -0.21 | saracatinib -0.152 | sotrastaurin -0.011 | alvocidib -0.079 | Tubastatin A 0.2 | [6] -0.071 | defactinib 0.046 | [7] -0.008 | encorafenib 0.031 | [8] -0.031 | alisertib 0.143 | [9] -0.165 | gefitinib -0.141

RPL18 (UniProt Q07020)
inactive: vemurafenib -0.035 | [1] -0.006 | barasertib -0.045 | [2] 0.035 | volasertib 0.004 | [3] -0.009 | [4] 0.006 | [5] -0.009 | saracatinib 0.006 | sotrastaurin 0.006 | alvocidib -0.02 | Tubastatin A 0.026 | [6] -0.016 | defactinib 0.011 | [7] 0.023 | encorafenib -0.027 | [8] -0.007 | alisertib 0.039 | [9] -0.021 | gefitinib -0.025

RHOG (UniProt P84095)
inactive: vemurafenib -0.042 | [1] 0.012 | barasertib 0.009 | [2] 0.02 | volasertib -0.023 | [3] -0.011 | [4] -0.01 | [5] 0.019 | saracatinib 0.005 | sotrastaurin -0.004 | alvocidib 0.048 | Tubastatin A 0.016 | [6] -0.006 | defactinib 0.03 | [7] 0.065 | encorafenib -0.011 | [8] -0.068 | alisertib 0.007 | [9] 0.052 | gefitinib -0.063

Reprinted from the results shown (2 entries):
RHOC (UniProt P08134)
inactive: vemurafenib -0.024 | [1] 0.015 | barasertib -0.018 | [2] -0.059 | volasertib -0.02 | [3] 0.072 | [4] -0.133 | [5] 0.095 | saracatinib 0 | sotrastaurin -0.024 | alvocidib -0.015 | Tubastatin A -0.026 | [6] 0.029 | defactinib 0.004 | [7] -0.104 | encorafenib -0.018 | [8] 0.024 | alisertib -0.014 | [9] 0.028 | gefitinib 0.004

RHOT2 (UniProt Q8IXI1)
inactive: vemurafenib 0.019 | [1] -0.006 | barasertib 0.072 | [2] -0.011 | volasertib -0.064 | [3] -0.022 | [4] -0.086 | [5] 0.047 | saracatinib -0.021 | sotrastaurin -0.003 | alvocidib 0.024 | Tubastatin A 0.016 | [6] -0.04 | defactinib -0.034 | [7] 0.027 | encorafenib -0.013 | [8] -0.038 | alisertib 0.01 | [9] 0.032 | gefitinib 0.043

The list goes on:

ROCK2 (UniProt O75116)
inactive: vemurafenib -0.027 | [1] -0.015 | barasertib 0.005 | [2] -0.003 | volasertib -0.012 | [3] -0.013 | [4] 0.053 | [5] 0.027 | saracatinib 0 | sotrastaurin 0.012 | alvocidib 0 | Tubastatin A -0.008 | [6] 0.021 | defactinib -0.012 | [7] 0.13 | encorafenib 0.013 | [8] -0.008 | alisertib -0.03 | [9] 0.175 | gefitinib 0.002

RPL34 (UniProt P49207)
inactive: vemurafenib 0.011 | [1] -0.002 | barasertib -0.043 | [2] -0.046 | volasertib 0.002 | [3] -0.002 | [4] 0.006 | [5] 0.028 | saracatinib -0.008 | sotrastaurin -0.015 | alvocidib -0.005 | Tubastatin A -0.007 | [6] -0.017 | defactinib 0.009 | [7] 0.037 | encorafenib 0 | [8] -0.008 | alisertib 0.029 | [9] -0.015 | gefitinib -0.04

RNF213, A0A0A0MTC1
inactive: vemurafenib 0.017 | [1] 0.025 | barasertib 0.076 | [2] -0.038 | volasertib -0.077 | [3] 0.027 | [4] -0.05 | [5] -0.053 | saracatinib 0.027 | sotrastaurin 0.043 | alvocidib -0.003 | Tubastatin A -0.081 | [6] 0.023 | defactinib -0.02 | [7] -0.04 | encorafenib 0.054 | [8] -0.061 | alisertib 0.013 | [9] 0.012 | gefitinib -0.012

RNASET2 (UniProt O00584)
inactive: vemurafenib 0.014 | [1] -0.021 | barasertib -0.012 | [2] -0.017 | volasertib 0.012 | [3] -0.021 | [4] 0.002 | [5] 0.029 | saracatinib -0.037 | sotrastaurin -0.026 | alvocidib -0.033 | Tubastatin A 0.062 | [6] 0.002 | defactinib -0.01 | [7] 0.04 | encorafenib -0.035 | [8] -0.014 | alisertib -0.007 | [9] 0.004 | gefitinib 0.008

RNGTT (UniProt O60942)
inactive: vemurafenib -0.026 | [1] 0.056 | barasertib -0.022 | [2] -0.038 | volasertib -0.05 | [3] 0.038 | [4] -0.05 | [5] -0.006 | saracatinib 0.033 | sotrastaurin -0.036 | alvocidib 0.003 | Tubastatin A -0.061 | [6] 0.003 | defactinib 0.02 | [7] -0.032 | encorafenib 0.064 | [8] 0.098 | alisertib -0.002 | [9] -0.035 | gefitinib -0.018

RPL23 (UniProt P62829)
inactive: vemurafenib 0 | [1] -0.016 | barasertib -0.038 | [2] 0.007 | volasertib 0.004 | [3] -0.012 | [4] -0.045 | [5] -0.004 | saracatinib -0.004 | sotrastaurin -0.008 | alvocidib -0.001 | Tubastatin A -0.004 | [6] -0.008 | defactinib -0.024 | [7] 0.03 | encorafenib -0.017 | [8] 0.021 | alisertib 0.025 | [9] 0.008 | gefitinib 0.007

RPA3 (UniProt P35244)
inactive: vemurafenib 0.018 | [1] 0.057 | barasertib 0.058 | [2] 0.01 | volasertib 0.016 | [3] -0.016 | [4] 0.042 | [5] -0.057 | saracatinib 0.015 | sotrastaurin -0.023 | alvocidib 0.009 | Tubastatin A 0.017 | [6] 0.02 | defactinib 0.064 | [7] -0.032 | encorafenib -0.015 | [8] -0.019 | alisertib -0.031 | [9] -0.024 | gefitinib -0.08
